Measurements reported in PubChem BioAssay AID652243 (Drosophila RNAi Screening Center, 2013).
Assay: 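Fly regulators of androgen-dependent reporter output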 (primary screen). Cells: Drosophila S2R+ cells. Reagent: long dsRNA against Drosophila genes. Time to read-out: 72 h (48 h, then 24 h hormone). Conditions: synthetic androgen R1881 at 10 nM for 24 h. Measured: 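Firefly light from an androgen-responsive reporter and Renilla control light per well, raw and unnormalised, for each of two replicates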. Direction: firefly reporter light: higher = more light from androgen-responsive reporter; Renilla control light: higher = more constitutive control signal (cell number, transfection). Hit rule: 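Across duplicate plates, a knock-down whose log firefly/Renilla ratio shifted a set fold down or up from the GFP/LacZ control mean was a hit; the downward cut appears as both 1.5 and 3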. Calls: active = hit: reporter lowered or raised; inactive = no hit.
The screen tested about 24,000 reagents; below is an unselected part of those that have a named target and a result. Over the whole deposit, 246 (1%) got an active call. 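Plates not normalised; calls are printed but the firefly/Renilla ratio behind them is not deposited; fold cut for lowering reported inconsistently.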 The raw values are shown without normalisation. The numbers tell different reagents against one gene apart. Not stated in the record: the amount of reagent.

Target gene	dsRNA no.	firefly reporter light, replicate 1	firefly reporter light, replicate 2	Renilla control light, replicate 1	Renilla control light, replicate 2	Call
CG5355	1	8.06e5	9.58e5	1.59e6	1.55e6	inactive
Pi3K92E	1	1.23e5	90402	8.26e5	8.75e5	inactive
Pi3K92E	2					inactive
Pi3K92E	3					inactive
GCC88	1	96350	1.60e5	1.96e6	1.88e6	inactive
GCC88	2	1.13e6	8.92e5	1.30e6	1.35e6	inactive
CG11007	1	1.25e6	8.82e5	1.25e6	7.91e5	inactive
Spn77Ba	1	13463	37096	2.31e5	2.51e5	inactive
Exn	1	22438	18295	2.72e5	2.45e5	inactive
Exn	2	1.93e5	1.71e5	1.74e6	1.46e6	inactive
Exn	3	7.64e5	7.07e5	9.86e5	8.60e5	inactive
Exn	4	7.94e5	8.90e5	1.02e6	1.09e6	inactive
SrpRbeta	1	6.63e5	6.48e5	2.40e6	2.86e6	inactive
SrpRbeta	2	7.05e5	3.74e5	3.73e6	1.39e6	inactive
Cyt-b5	1	8.15e5	7.66e5	2.17e6	2.72e6	inactive
Psn	1	2.88e5	3.08e5	2.15e6	2.84e6	inactive
CG42335	1	2.00e5	2.04e5	4.89e6	3.35e6	inactive
CG42335	2	2.23e5	3.23e5	3.28e6	3.88e6	inactive
CG42335	3	6.62e5	8.06e5	7.39e5	5.73e5	inactive
spz5	1	8.27e5	8.78e5	1.69e6	1.77e6	inactive
Obp50e	1	1.44e5	1.35e5	2.49e6	2.49e6	inactive
sage	1	3.99e5	3.74e5	1.88e6	2.44e6	inactive
sage	2	2.60e5	7.07e5	1.11e6	1.56e6	inactive
CG34030	1	7.35e5	7.23e5	1.84e6	1.44e6	inactive

4 entries from above, arranged by “firefly reporter light, replicate 2”, descending.
Target gene	dsRNA no.	firefly reporter light, replicate 1	firefly reporter light, replicate 2	Renilla control light, replicate 1	Renilla control light, replicate 2	Call
Cyt-b5	1	8.15e5	7.66e5	2.17e6	2.72e6	inactive
SrpRbeta	2	7.05e5	3.74e5	3.73e6	1.39e6	inactive
Psn	1	2.88e5	3.08e5	2.15e6	2.84e6	inactive
CG42335	1	2.00e5	2.04e5	4.89e6	3.35e6	inactive

Further results follow:
Target gene	dsRNA no.	firefly reporter light, replicate 1	firefly reporter light, replicate 2	Renilla control light, replicate 1	Renilla control light, replicate 2	Call
slou	1	2.00e5	2.47e5	3.02e6	3.23e6	inactive
slou	2	2.89e5	1.36e5	8.69e5	5.22e5	inactive
CG15012	1	8.45e5	7.33e5	9.80e5	1.36e6	inactive
CG42240	1	5.08e5	5.23e5	1.76e6	1.84e6	inactive
CG42240	2	8.68e5	7.27e5	1.30e6	1.53e6	inactive
Cand1	1	9.38e5	9.80e5	1.70e6	1.54e6	inactive
TFAM	1	33732	54491	4.39e5	4.44e5	inactive
TFAM	2	3.47e5	3.19e5	8.79e5	7.71e5	inactive
CG13627	1	1.74e5	2.20e5	2.43e6	2.42e6	inactive
baz	1	5.78e5	4.35e5	2.26e6	2.35e6	inactive
baz	2	7.84e5	5.98e5	9.50e5	8.69e5	inactive
CG6659	1	75928	95697	3.68e5	6.01e5	inactive
RfC38	1	7.79e5	5.38e5	1.63e6	1.47e6	inactive
CG43902	1	3.54e5	2.54e5	3.28e6	2.29e6	inactive
CG43902	2	6.59e5	5.23e5	1.31e6	1.20e6	inactive
CG43902	3	7.26e5	6.77e5	1.35e6	1.05e6	inactive
